In the supplement of paper PMC3334620:
In all, about 33,000 sequences were measured (“E-score (-0.5 to 0.5)”: median about -0.0059, highest 2% from about 0.26 on). This is one part of the list.

Biological target: T1, Cin5 (UniProt P40917)
T1 sequence: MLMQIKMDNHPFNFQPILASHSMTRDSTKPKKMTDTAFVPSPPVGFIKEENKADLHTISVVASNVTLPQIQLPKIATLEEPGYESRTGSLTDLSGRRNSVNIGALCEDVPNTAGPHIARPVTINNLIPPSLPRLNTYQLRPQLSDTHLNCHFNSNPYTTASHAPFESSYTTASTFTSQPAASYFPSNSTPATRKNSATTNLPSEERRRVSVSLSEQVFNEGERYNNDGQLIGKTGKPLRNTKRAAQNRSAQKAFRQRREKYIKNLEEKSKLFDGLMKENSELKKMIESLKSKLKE
Assay: PBM E-score (8-mer binding enrichment) (E-score (-0.5 to 0.5)); higher = stronger / more preferred TF binding
Details: protein concentration: 100 nM; construct: GST-full length
How it was run: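 Bound GST-tagged yeast transcription factors, applied at about 100-200 nM to double-stranded universal all-10-mer Agilent arrays, were detected with fluorescent anti-GST. Scans were normalised with masliner. A modified Wilcoxon-Mann-Whitney statistic, the E-score, was assigned to each ungapped eight-base word pooled with its reverse complement by the Universal PBM Analysis Suite.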

In order of rising “PBM E-score” value:
1. CGCTAGAC  -0.281
2. AAGGAGGT  -0.26
3. GGGACCCC  -0.26
4. CACAGGGG  -0.237
5. CTCCTCGC  -0.222
6. AGCGCCAT  -0.22
7. AGGTCGGC  -0.21
8. AAGGGGAA  -0.208
9. GTCTCGCA  -0.191
10. AGCCGCTG  -0.188
11. GGGGAAGA  -0.179
12. CAGTCGTA  -0.174
13. TAGGAGAA  -0.171
14. CAGTTAGC  -0.17
15. ACCCGTGA  -0.165
16. CTTCCCTA  -0.16
17. ACCACACC  -0.15
18. ATGACCGG  -0.144
19. CCCTTCAA  -0.141
20. ACAGGGGC  -0.138
21. CCTGTCGA  -0.135
22. GATTCTCC  -0.134
23. AAATCGGT  -0.126
24. CCCGTACC  -0.125
25. AGTTGCCA  -0.108
26. AAACTGAG  -0.105
27. CAAGTACC  -0.1
28. CAGTGGTA  -0.0983
29. AGATCCCT  -0.0979
30. CCCCGAAC  -0.091
31. AATCTGGG  -0.0792
32. ACTAGGAT  -0.0757
33. CCCCTGAC  -0.0686
34. AGCAGGAC  -0.0639
35. AGCTAGGA  -0.047
36. AACGATCA  -0.0455
37. CACCTTCA  -0.0454
38. AGCCGCTC  -0.0337
39. CTGGTAAC  -0.0333
40. CACTGTGC  -0.0303
41. CTGCTAAC  -0.0283
42. ATCGCTAG  -0.0029
43. GTGGCCGA  0.00156
44. AAGACAGT  0.0215
45. ACTCCAAA  0.0287
46. AGTAGAAG  0.0295
47. ACCATCCC  0.0299
48. ACTCGAGC  0.0394
49. GAAGTACC  0.0459
50. AACTCTAG  0.0483
51. CTTAAAAC  0.0781
52. ACAACACC  0.084
53. TGCGAACA  0.101
54. AAACTCGT  0.105
55. AAAATGAG  0.11
56. ACGGAGTG  0.118
57. CACTCAGA  0.129
58. AACAGACT  0.138
59. GCACCCAC  0.145
60. ATATGCGG  0.148
61. CATTAAAG  0.155
62. AATGACGG  0.157
63. AGTATTTC  0.178
64. GAAATAGA  0.181
65. TATGTGGA  0.194
66. ATAAGCGG  0.206
67. GTGGATTA  0.212
68. CGCCGGCG  0.235
69. AATCGGGT  0.241
